Measurements: the supplement of paper PMC12823440, “Inhibitors supercharge kinase turnover through native proteolytic circuits” (Nature, 2025)
Structures can show the parent of a compound that is named as a salt. This is one part of the list. The calls rarely recur for the same compound in another form.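 Kinases were expressed as nanoluciferase fusions in K562 cells and luminescence was read every 4 h between 2 and 18 h as percent of control, DMSO set to 100% and a positive control to 0%. A time point counts as decreased when the signal drops significantly (2 sigma). The hit call is the authors' own, does not follow from the count of time points alone, and its rule is not shown.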

Amino acid sequences for entries named in this document (tags omitted). A change or cut given only in a name is not applied to a line headed by its entry.
UniProt P21860, whole entry: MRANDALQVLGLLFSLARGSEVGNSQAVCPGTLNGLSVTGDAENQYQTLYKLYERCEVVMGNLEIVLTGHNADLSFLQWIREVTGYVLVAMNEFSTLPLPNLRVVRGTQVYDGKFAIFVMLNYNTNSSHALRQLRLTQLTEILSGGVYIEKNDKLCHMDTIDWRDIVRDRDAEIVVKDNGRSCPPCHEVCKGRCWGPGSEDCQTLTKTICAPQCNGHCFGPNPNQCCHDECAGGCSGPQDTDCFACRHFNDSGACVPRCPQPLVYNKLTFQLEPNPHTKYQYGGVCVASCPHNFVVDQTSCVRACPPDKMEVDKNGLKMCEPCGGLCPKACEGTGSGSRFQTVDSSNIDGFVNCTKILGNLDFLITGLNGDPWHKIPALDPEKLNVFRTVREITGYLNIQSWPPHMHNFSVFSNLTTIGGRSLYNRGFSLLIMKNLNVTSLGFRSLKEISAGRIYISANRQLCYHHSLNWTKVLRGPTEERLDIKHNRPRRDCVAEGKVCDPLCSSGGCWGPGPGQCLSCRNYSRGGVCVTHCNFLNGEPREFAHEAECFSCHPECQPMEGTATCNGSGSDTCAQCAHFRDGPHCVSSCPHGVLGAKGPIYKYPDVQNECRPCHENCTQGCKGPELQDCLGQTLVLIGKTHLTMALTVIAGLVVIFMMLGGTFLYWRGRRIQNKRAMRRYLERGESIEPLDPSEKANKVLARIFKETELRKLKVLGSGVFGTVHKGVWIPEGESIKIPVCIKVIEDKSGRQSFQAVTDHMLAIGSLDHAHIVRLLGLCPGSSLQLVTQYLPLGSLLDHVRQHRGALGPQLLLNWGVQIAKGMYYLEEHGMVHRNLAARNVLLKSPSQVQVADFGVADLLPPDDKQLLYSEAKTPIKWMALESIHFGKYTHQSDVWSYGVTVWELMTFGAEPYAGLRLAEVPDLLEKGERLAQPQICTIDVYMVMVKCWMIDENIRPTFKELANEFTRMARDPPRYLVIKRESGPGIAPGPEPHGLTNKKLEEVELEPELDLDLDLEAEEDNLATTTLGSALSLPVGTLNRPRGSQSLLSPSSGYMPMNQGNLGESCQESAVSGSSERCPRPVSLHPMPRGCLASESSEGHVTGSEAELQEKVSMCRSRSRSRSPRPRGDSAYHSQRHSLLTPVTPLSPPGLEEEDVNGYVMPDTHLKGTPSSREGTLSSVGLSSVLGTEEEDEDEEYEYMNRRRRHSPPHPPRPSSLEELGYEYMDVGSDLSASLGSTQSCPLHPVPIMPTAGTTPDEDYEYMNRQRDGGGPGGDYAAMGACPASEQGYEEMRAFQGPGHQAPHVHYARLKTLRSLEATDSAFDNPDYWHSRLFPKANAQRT
UniProt P11362, whole entry, looked up: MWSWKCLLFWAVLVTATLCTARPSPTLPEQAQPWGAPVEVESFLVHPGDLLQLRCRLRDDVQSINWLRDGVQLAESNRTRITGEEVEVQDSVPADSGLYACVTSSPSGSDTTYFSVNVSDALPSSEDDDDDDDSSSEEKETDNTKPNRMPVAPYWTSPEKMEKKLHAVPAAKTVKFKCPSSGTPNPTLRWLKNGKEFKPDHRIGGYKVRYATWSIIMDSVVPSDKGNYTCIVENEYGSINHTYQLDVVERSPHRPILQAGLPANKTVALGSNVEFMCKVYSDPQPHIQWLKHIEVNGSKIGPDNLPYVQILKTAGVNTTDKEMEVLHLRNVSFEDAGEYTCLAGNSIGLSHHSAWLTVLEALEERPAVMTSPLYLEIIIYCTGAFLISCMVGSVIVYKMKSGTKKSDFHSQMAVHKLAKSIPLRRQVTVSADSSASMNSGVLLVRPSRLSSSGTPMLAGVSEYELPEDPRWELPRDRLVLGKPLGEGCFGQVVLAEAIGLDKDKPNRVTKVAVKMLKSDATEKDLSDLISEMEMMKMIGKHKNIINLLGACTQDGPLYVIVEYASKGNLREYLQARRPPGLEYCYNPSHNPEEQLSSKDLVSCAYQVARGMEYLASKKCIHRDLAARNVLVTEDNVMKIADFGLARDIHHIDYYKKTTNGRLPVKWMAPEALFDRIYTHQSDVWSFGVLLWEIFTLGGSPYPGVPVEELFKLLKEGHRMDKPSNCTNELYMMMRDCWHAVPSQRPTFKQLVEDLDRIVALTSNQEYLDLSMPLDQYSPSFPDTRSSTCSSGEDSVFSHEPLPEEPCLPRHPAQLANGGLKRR
UniProt P21802, whole entry, looked up: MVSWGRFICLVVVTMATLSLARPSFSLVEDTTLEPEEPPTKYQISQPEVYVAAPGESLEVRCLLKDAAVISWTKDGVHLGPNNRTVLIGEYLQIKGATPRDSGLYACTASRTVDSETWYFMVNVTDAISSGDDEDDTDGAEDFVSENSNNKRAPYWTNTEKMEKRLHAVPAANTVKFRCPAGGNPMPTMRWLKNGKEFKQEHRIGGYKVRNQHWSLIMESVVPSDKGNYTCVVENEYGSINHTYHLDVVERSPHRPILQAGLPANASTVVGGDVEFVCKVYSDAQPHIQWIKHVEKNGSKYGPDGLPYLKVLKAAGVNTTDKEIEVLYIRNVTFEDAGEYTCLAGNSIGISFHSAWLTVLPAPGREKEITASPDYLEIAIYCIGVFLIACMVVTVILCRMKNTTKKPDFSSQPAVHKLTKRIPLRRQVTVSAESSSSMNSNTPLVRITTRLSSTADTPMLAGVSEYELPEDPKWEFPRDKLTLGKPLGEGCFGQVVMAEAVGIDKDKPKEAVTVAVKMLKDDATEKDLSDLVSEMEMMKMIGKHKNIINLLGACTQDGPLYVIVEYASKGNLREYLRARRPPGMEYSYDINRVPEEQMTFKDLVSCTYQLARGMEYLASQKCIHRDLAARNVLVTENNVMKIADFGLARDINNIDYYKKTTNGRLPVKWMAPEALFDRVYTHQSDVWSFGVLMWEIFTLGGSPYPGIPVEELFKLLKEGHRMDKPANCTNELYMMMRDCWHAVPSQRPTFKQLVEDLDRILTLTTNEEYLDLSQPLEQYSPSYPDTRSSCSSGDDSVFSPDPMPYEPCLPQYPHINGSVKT
UniProt P22607, whole entry, looked up: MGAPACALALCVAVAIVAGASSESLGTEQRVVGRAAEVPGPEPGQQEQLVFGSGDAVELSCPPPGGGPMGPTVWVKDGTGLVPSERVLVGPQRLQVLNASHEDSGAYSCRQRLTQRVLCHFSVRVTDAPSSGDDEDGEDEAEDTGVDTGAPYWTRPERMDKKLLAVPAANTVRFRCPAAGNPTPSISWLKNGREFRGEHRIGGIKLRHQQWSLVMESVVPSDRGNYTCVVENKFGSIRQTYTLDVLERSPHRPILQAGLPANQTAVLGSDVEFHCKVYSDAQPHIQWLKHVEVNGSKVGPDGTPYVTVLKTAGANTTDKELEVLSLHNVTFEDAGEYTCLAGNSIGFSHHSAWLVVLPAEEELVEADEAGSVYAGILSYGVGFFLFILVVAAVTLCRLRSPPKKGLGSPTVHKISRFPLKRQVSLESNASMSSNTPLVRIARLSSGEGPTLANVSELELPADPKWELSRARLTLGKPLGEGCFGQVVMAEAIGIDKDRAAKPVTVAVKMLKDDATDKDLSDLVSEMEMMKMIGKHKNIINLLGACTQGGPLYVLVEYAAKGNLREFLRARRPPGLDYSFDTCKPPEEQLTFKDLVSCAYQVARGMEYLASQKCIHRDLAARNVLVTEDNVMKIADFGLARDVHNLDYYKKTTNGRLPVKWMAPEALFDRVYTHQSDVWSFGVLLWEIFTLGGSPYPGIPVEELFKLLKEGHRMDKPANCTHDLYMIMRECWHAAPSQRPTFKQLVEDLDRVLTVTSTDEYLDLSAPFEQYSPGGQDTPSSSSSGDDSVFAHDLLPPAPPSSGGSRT
UniProt P36888, whole entry: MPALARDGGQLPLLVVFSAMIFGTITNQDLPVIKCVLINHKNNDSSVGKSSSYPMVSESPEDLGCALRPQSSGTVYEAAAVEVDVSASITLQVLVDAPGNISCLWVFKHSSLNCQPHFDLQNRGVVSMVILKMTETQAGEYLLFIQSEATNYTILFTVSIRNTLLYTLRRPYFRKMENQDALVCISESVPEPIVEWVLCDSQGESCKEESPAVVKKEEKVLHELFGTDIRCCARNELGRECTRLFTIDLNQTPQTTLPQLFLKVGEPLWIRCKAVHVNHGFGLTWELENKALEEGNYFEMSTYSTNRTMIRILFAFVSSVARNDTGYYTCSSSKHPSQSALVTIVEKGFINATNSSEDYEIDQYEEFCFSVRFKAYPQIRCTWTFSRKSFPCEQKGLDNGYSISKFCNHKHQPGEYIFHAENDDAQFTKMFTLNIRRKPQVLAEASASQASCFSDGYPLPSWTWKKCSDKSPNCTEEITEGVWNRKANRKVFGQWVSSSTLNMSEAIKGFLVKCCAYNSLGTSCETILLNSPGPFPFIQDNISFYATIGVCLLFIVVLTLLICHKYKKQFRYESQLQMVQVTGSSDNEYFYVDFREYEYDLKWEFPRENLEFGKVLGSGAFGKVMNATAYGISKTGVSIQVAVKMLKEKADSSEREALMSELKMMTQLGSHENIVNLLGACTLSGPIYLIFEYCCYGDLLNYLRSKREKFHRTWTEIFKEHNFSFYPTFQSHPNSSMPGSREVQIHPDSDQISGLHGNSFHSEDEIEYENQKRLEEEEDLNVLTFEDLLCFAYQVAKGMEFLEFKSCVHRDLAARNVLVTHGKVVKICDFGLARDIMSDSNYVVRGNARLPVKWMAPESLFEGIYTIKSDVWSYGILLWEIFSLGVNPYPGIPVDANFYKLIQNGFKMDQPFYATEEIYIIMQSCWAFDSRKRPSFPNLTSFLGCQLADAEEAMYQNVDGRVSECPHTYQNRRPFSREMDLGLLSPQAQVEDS
UniProt P06241, whole entry, looked up: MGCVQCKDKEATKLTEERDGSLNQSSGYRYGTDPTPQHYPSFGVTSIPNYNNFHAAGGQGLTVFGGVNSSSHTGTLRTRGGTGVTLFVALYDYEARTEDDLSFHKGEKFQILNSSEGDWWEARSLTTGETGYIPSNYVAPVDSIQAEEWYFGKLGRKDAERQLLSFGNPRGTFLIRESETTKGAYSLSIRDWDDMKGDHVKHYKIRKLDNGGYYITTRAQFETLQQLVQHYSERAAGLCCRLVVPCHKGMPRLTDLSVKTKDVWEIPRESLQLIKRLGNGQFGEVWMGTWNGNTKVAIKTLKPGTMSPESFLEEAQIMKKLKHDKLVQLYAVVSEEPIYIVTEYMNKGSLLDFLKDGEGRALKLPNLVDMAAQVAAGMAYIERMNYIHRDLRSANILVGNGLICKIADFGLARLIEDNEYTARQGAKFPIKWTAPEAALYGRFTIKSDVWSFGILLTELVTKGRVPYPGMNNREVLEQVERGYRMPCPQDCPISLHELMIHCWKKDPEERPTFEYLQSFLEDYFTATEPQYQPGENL
UniProt P49840: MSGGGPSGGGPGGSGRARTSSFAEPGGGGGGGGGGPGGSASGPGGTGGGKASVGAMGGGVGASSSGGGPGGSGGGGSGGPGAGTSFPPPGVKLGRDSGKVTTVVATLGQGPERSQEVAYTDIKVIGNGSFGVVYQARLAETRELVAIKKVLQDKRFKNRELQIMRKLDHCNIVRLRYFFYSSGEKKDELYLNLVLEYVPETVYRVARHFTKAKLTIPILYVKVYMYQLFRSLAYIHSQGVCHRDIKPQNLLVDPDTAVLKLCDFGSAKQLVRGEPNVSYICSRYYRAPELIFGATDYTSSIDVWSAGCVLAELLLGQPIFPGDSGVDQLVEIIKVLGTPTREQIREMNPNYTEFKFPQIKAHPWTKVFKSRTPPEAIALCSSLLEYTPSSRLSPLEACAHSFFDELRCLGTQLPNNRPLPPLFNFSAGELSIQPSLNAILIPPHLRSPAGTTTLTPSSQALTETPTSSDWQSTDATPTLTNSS

Legend:
Test in all cases: kinase-Nluc reporter destabilization hit call (1 = scored as downregulated) (binary); higher = compound decreases kinase abundance
Details in all cases: K562, 2-18 h
EGFR = EGFR (UniProt P00533)
EGFR_G719S = EGFR_G719S (UniProt P00533)
EGFR_G719S_T790M = EGFR_G719S_T790M (UniProt P00533)
EGFR_L718V = EGFR_L718V (UniProt P00533)
EGFR_L858R = EGFR_L858R (UniProt P00533)
EGFR_L861Q = EGFR_L861Q (UniProt P00533)
EGFR_T790M = EGFR_T790M (UniProt P00533)
EPHA2 = EPHA2 (UniProt P29317)
ERBB3 = ERBB3 (UniProt P21860)
[1] = molecular target: ERBB4_R711C (clone: ERBB4_mut) (UniProt Q15303)
ERN1 = ERN1 (UniProt O75460)
FGFR1 = FGFR1 (UniProt P11362)
FGFR2 = FGFR2 (UniProt P21802)
FGFR3 = FGFR3 (UniProt P22607)
FGR = FGR (UniProt P09769)
FLT3 = FLT3 (UniProt P36888)
FYN = FYN (UniProt P06241)
GSK3A = GSK3A (UniProt P49840)
HER2 = HER2 (UniProt P04626)
INSRR = INSRR (UniProt P14616)

Measured: kinase-Nluc reporter destabilization hit call

COc1cc2c(Oc3ccc4[nH]c(C)cc4c3F)ncnc2cc1OCCCN1CCCC1 [Cediranib (maleate)]
inactive: EGFR; 2.5 µM 0 | EGFR_G719S; 2.5 µM 0 | EGFR_G719S_T790M; 2.5 µM 0 | EGFR_L718V; 2.5 µM 0 | EGFR_L858R; 2.5 µM 0 | EGFR_L861Q; 2.5 µM 0 | EGFR_T790M; 2.5 µM 0 | EPHA2; 2.5 µM 0 | ERBB3; 2.5 µM 0 | [1]; 2.5 µM 0 | ERN1; 2.5 µM 0 | FGFR1; 2.5 µM 0 | FGFR2; 2.5 µM 0 | FGFR3; 2.5 µM 0 | FGR; 2.5 µM 0 | FLT3; 2.5 µM 0 | FYN; 2.5 µM 0 | GSK3A; 2.5 µM 0 | HER2; 2.5 µM 0 | INSRR; 2.5 µM 0

CNC(=O)c1cc(Oc2ccc(NC(=O)Nc3ccc(Cl)c(C(F)(F)F)c3)c(F)c2)ccn1 [Regorafenib (monohydrate)]
inactive: EGFR; 2.5 µM 0 | EGFR_G719S; 2.5 µM 0 | EGFR_G719S_T790M; 2.5 µM 0 | EGFR_L718V; 2.5 µM 0 | EGFR_L858R; 2.5 µM 0 | EGFR_L861Q; 2.5 µM 0 | EGFR_T790M; 2.5 µM 0 | EPHA2; 2.5 µM 0 | ERBB3; 2.5 µM 0 | [1]; 2.5 µM 0 | ERN1; 2.5 µM 0 | FGFR1; 2.5 µM 0 | FGFR2; 2.5 µM 0 | FGFR3; 2.5 µM 0 | FGR; 2.5 µM 0 | FLT3; 2.5 µM 0 | FYN; 2.5 µM 0 | GSK3A; 2.5 µM 0 | HER2; 2.5 µM 0 | INSRR; 2.5 µM 0

CCS(=O)(=O)N1CC(CC#N)(n2cc(-c3ncnc4[nH]ccc34)cn2)C1 [Baricitinib (phosphate)]
inactive: EGFR; 10 µM 0 | EGFR_G719S; 10 µM 0 | EGFR_G719S_T790M; 10 µM 0 | EGFR_L718V; 10 µM 0 | EGFR_L858R; 10 µM 0 | EGFR_L861Q; 10 µM 0 | EGFR_T790M; 10 µM 0 | EPHA2; 10 µM 0 | ERBB3; 10 µM 0 | [1]; 10 µM 0 | ERN1; 10 µM 0 | FGFR1; 10 µM 0 | FGFR2; 10 µM 0 | FGFR3; 10 µM 0 | FGR; 10 µM 0 | FLT3; 10 µM 0 | FYN; 10 µM 0 | GSK3A; 10 µM 0 | HER2; 10 µM 0 | INSRR; 10 µM 0

CC(C)Oc1ccc(-c2nn([C@@H](C)c3oc4ccc(F)cc4c(=O)c3-c3cccc(F)c3)c3ncnc(N)c23)cc1F [Umbralisib (hydrochloride)]
inactive: EGFR; 2.5 µM 0 | EGFR_G719S; 2.5 µM 0 | EGFR_G719S_T790M; 2.5 µM 0 | EGFR_L718V; 2.5 µM 0 | EGFR_L858R; 2.5 µM 0 | EGFR_L861Q; 2.5 µM 0 | EGFR_T790M; 2.5 µM 0 | EPHA2; 2.5 µM 0 | ERBB3; 2.5 µM 0 | [1]; 2.5 µM 0 | ERN1; 2.5 µM 0 | FGFR1; 2.5 µM 0 | FGFR2; 2.5 µM 0 | FGFR3; 2.5 µM 0 | FGR; 2.5 µM 0 | FLT3; 2.5 µM 0 | FYN; 2.5 µM 0 | GSK3A; 2.5 µM 0 | HER2; 2.5 µM 0 | INSRR; 2.5 µM 0

CCN(CC)CC(=O)Nc1c(C)cccc1C [Lidocaine]
inactive: EGFR; 10 µM 0 | EGFR_G719S; 10 µM 0 | EGFR_G719S_T790M; 10 µM 0 | EGFR_L718V; 10 µM 0 | EGFR_L858R; 10 µM 0 | EGFR_L861Q; 10 µM 0 | EGFR_T790M; 10 µM 0 | EPHA2; 10 µM 0 | ERBB3; 10 µM 0 | [1]; 10 µM 0 | ERN1; 10 µM 0 | FGFR1; 10 µM 0 | FGFR2; 10 µM 0 | FGFR3; 10 µM 0 | FGR; 10 µM 0 | FLT3; 10 µM 0 | FYN; 10 µM 0 | GSK3A; 10 µM 0 | HER2; 10 µM 0 | INSRR; 10 µM 0

CNC(=O)c1ccccc1Nc1cc(Nc2ccc(N3CCOCC3)cc2OC)ncc1C(F)(F)F
inactive: EGFR; 10 µM 0 | EGFR_G719S; 10 µM 0 | EGFR_G719S_T790M; 10 µM 0 | EGFR_L718V; 10 µM 0 | EGFR_L858R; 10 µM 0 | EGFR_L861Q; 10 µM 0 | EGFR_T790M; 10 µM 0 | EPHA2; 10 µM 0 | ERBB3; 10 µM 0 | [1]; 10 µM 0 | ERN1; 10 µM 0 | FGFR1; 10 µM 0 | FGFR2; 10 µM 0 | FGFR3; 10 µM 0 | FGR; 10 µM 0 | FLT3; 10 µM 0 | FYN; 10 µM 0 | GSK3A; 10 µM 0 | HER2; 10 µM 0 | INSRR; 10 µM 0

COc1ccc(S(=O)(=O)N(CCO)c2ccccc2CN(C)C/C=C/c2ccc(Cl)cc2)cc1 [KN-93 (phosphate)]
inactive: EGFR; 2.5 µM 0 | EGFR_G719S; 2.5 µM 0 | EGFR_G719S_T790M; 2.5 µM 0 | EGFR_L718V; 2.5 µM 0 | EGFR_L858R; 2.5 µM 0 | EGFR_L861Q; 2.5 µM 0 | EGFR_T790M; 2.5 µM 0 | EPHA2; 2.5 µM 0 | ERBB3; 2.5 µM 0 | [1]; 2.5 µM 0 | ERN1; 2.5 µM 0 | FGFR1; 2.5 µM 0 | FGFR2; 2.5 µM 0 | FGFR3; 2.5 µM 0 | FGR; 2.5 µM 0 | FLT3; 2.5 µM 0 | FYN; 2.5 µM 0 | GSK3A; 2.5 µM 0 | HER2; 2.5 µM 0 | INSRR; 2.5 µM 0

Sorted by count of non-hydrogen atoms (low to high): part of the list above.
CCS(=O)(=O)N1CC(CC#N)(n2cc(-c3ncnc4[nH]ccc34)cn2)C1 [Baricitinib (phosphate)]
inactive: EGFR; 10 µM 0 | EGFR_G719S; 10 µM 0 | EGFR_G719S_T790M; 10 µM 0 | EGFR_L718V; 10 µM 0 | EGFR_L858R; 10 µM 0 | EGFR_L861Q; 10 µM 0 | EGFR_T790M; 10 µM 0 | EPHA2; 10 µM 0 | ERBB3; 10 µM 0 | [1]; 10 µM 0 | ERN1; 10 µM 0 | FGFR1; 10 µM 0 | FGFR2; 10 µM 0 | FGFR3; 10 µM 0 | FGR; 10 µM 0 | FLT3; 10 µM 0 | FYN; 10 µM 0 | GSK3A; 10 µM 0 | HER2; 10 µM 0 | INSRR; 10 µM 0

CNC(=O)c1ccccc1Nc1cc(Nc2ccc(N3CCOCC3)cc2OC)ncc1C(F)(F)F
inactive: EGFR; 10 µM 0 | EGFR_G719S; 10 µM 0 | EGFR_G719S_T790M; 10 µM 0 | EGFR_L718V; 10 µM 0 | EGFR_L858R; 10 µM 0 | EGFR_L861Q; 10 µM 0 | EGFR_T790M; 10 µM 0 | EPHA2; 10 µM 0 | ERBB3; 10 µM 0 | [1]; 10 µM 0 | ERN1; 10 µM 0 | FGFR1; 10 µM 0 | FGFR2; 10 µM 0 | FGFR3; 10 µM 0 | FGR; 10 µM 0 | FLT3; 10 µM 0 | FYN; 10 µM 0 | GSK3A; 10 µM 0 | HER2; 10 µM 0 | INSRR; 10 µM 0

CC(C)Oc1ccc(-c2nn([C@@H](C)c3oc4ccc(F)cc4c(=O)c3-c3cccc(F)c3)c3ncnc(N)c23)cc1F [Umbralisib (hydrochloride)]
inactive: EGFR; 2.5 µM 0 | EGFR_G719S; 2.5 µM 0 | EGFR_G719S_T790M; 2.5 µM 0 | EGFR_L718V; 2.5 µM 0 | EGFR_L858R; 2.5 µM 0 | EGFR_L861Q; 2.5 µM 0 | EGFR_T790M; 2.5 µM 0 | EPHA2; 2.5 µM 0 | ERBB3; 2.5 µM 0 | [1]; 2.5 µM 0 | ERN1; 2.5 µM 0 | FGFR1; 2.5 µM 0 | FGFR2; 2.5 µM 0 | FGFR3; 2.5 µM 0 | FGR; 2.5 µM 0 | FLT3; 2.5 µM 0 | FYN; 2.5 µM 0 | GSK3A; 2.5 µM 0 | HER2; 2.5 µM 0 | INSRR; 2.5 µM 0

Further compounds.

N#CC[C@H](C1CCCC1)n1cc(-c2ncnc3[nH]ccc23)cn1 [Ruxolitinib (phosphate)]
inactive: EGFR; 10 µM 0 | EGFR_G719S; 10 µM 0 | EGFR_G719S_T790M; 10 µM 0 | EGFR_L718V; 10 µM 0 | EGFR_L858R; 10 µM 0 | EGFR_L861Q; 10 µM 0 | EGFR_T790M; 10 µM 0 | EPHA2; 10 µM 0 | ERBB3; 10 µM 0 | [1]; 10 µM 0 | ERN1; 10 µM 0 | FGFR1; 10 µM 0 | FGFR2; 10 µM 0 | FGFR3; 10 µM 0 | FGR; 10 µM 0 | FLT3; 10 µM 0 | FYN; 10 µM 0 | GSK3A; 10 µM 0 | HER2; 10 µM 0 | INSRR; 10 µM 0

C#Cc1cccc(Nc2ncnc3cc4c(cc23)OCCOCCOCCO4)c1 [Icotinib (Hydrochloride)]
inactive: EGFR; 10 µM 0 | EGFR_G719S; 10 µM 0 | EGFR_G719S_T790M; 10 µM 0 | EGFR_L718V; 10 µM 0 | EGFR_L858R; 10 µM 0 | EGFR_L861Q; 10 µM 0 | EGFR_T790M; 10 µM 0 | EPHA2; 10 µM 0 | ERBB3; 10 µM 0 | [1]; 10 µM 0 | ERN1; 10 µM 0 | FGFR1; 10 µM 0 | FGFR2; 10 µM 0 | FGFR3; 10 µM 0 | FGR; 10 µM 0 | FLT3; 10 µM 0 | FYN; 10 µM 0 | GSK3A; 10 µM 0 | HER2; 10 µM 0 | INSRR; 10 µM 0
